PMC6397292
Results are given in words; binding and its absence hold for the method and conditions named. Binding seen in cells or lysates may run through a third protein. Some binding calls cover weakened binding; strength is not graded here.

The chains behind the UniProt entries cited, without tags or fusion partners.
UniProt P54274: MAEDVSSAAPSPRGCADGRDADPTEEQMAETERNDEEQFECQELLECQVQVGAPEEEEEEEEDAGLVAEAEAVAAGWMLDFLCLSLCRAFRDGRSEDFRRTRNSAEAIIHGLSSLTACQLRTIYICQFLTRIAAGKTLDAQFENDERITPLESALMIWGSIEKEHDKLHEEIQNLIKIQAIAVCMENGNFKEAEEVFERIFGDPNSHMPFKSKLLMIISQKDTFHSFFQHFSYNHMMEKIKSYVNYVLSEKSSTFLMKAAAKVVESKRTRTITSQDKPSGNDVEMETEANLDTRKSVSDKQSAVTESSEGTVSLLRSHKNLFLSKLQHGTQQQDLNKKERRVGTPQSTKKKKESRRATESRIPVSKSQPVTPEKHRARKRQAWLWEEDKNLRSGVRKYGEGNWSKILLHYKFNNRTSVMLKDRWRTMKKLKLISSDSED
UniProt Q15554: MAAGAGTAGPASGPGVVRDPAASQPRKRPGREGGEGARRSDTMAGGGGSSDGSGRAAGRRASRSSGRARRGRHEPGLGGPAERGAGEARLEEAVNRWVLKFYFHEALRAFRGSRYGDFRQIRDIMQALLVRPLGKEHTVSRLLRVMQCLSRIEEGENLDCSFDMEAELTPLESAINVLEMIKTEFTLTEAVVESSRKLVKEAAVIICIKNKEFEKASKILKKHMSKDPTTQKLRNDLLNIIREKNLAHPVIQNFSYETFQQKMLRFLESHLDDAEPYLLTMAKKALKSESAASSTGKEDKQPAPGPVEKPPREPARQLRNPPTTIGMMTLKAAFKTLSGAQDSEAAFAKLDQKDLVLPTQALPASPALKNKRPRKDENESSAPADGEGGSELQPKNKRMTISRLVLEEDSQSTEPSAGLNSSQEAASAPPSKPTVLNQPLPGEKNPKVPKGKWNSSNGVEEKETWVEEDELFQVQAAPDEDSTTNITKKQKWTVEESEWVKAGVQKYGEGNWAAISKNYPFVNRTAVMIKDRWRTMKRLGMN

Legend:
[1] = target: telomere repeat binding factor 1 (TRF1) (UniProt P54274); test: co-IP; immunoprecipitation experiments; cells and bait not stated
[2] = target: telomere repeat binding factor 2 (TRF2) (UniProt Q15554); test: as above

binding [1]: binds
binding [2]: binds
B1: Non-POU domain-containing octamer-binding protein (NONO) (protein, UniProt Q15233 1-471)
chain: MQSNKTFNLEKQNHTPRKHHQHHHQQQHHQQQQQQPPPPPIPANGQQASSQNEGLTIDLKNFRKPGEKTFTQRSRLFVGNLPPDITEEEMRKLFEKYGKAGEVFIHKDKGFGFIRLETRTLAEIAKVELDNMPLRGKQLRVRFACHSASLTVRNLPQYVSNELLEEAFSVFGQVERAVVIVDDRGRPSGKGIVEFSGKPAARKALDRCSEGSFLLTTFPRPVTVEPMDQLDDEEGLPEKLVIKNQQFHKEREQPPRFAQPGSFEYEYAMRWKALIEMEKQQQDQVDRNIKEAREKLEMEMEAARHEHQVMLMRQDLMRRQEELRRMEELHNQEVQKRKQLELRQEEERRRREEEMRRQQEEMMRRQQEGFKGTFPDAREQEIRMGQMAMGGAMGINNRGAMPPAPVPAGTPAPPGPATMMPDGTLGLTPPTTERFGQAATMEGIGAIGGTPPAFNRAAPGAEFAPNKRRRY
